The nature of this test: qHTS Assay for Modulators of Lamin A Splicing. Particulars: HeLa LMNA splicing GFP/RFP minigene ratio, 48 h. An outline of the steps: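 Read-out is the ratio of GFP to DsRed2 object intensity, acquired by 488 nm laser-scanning cytometry on HeLa lamin A-EGFP minigene reporter cells. Compound incubation 48 hrs at 37 °C in Opti-MEM with 2% FBS; DMSO 0.5% final.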
(In general: In qHTS, concentration-response curves come from the screen itself.)

The mark [1] stands for this setting: measured here: RFP viability control channel.
[2] abbreviates: measured here: GFP splicing reporter channel.

“And” between values parts separate entries of the source, which are not always exact repeats. Equal entries are not always repeated. The list shows a part of the results. The main result of the screen is listed elsewhere. These columns were measured beside it and carry no call. The list favours compounds with an active or inconclusive main result. Words in brackets tell the shape of the fitted curve; partial curves, single points and poor fits give uncertain potencies.

One may read the AC50 as the concentration at which the activity in the assay is half-maximal. Regarding `Cc1cc(SCc2cc(=O)n3ccsc3n2)nc2ccccc12`, the AC50 under setting [1] was 35.5 µM [rising, single point]. In the case of `CCN(Cc1ccccc1)c1ccc(/C=N/NC(=S)NC(C)C)cc1`, the half-maximal activity concentration (AC50) under setting [2] is 8.91 µM [rising, partial curve, poor fit] and the AC50 under setting [1] is 11.2 µM [rising, partial curve]. As for `Cc1[nH]c2ccccc2c1C1=NNC(=Nc2ccc(F)cc2)SC1`, the concentration at half-maximal activity (AC50) is 35.5 µM [falling, single point] under setting [2] and 35.5 µM [falling, single point] under setting [1].

`Cc1c(Br)c(=O)oc2c(Br)c(O)ccc12`: the AC50 under setting [2] was 1.58 µM [rising, full curve, poor fit]. Take `O=C1N2CCSC2=NC1(Nc1ccccn1)C(F)(F)F` (configuration not stated): under setting [1], the concentration at half-maximal activity (AC50) is 2.82 µM [falling, full curve]. For `CCCN1C(=O)/C(=N\OCC(=O)Nc2ccc(C(C)C)cc2)c2ccccc21`, the half-maximal activity concentration (AC50) runs as follows: under setting [2], 35.5 µM [rising, single point]; under setting [1], 35.5 µM [rising, single point]. Regarding `Cc1cc(OCCSc2nnc(-c3cccs3)n2C)ccc1Cl`, the AC50 under setting [1] was 20 µM [rising, single point]. On to `CC(C)CNC(=S)Nc1ccc(Oc2ccccc2)cc1`, for which the concentration at half-maximal activity (AC50) under setting [1] is 35.5 µM [rising, single point]. Take `COc1cc(C(C(=O)NC2CCCCC2)N(Cc2cccs2)C(=O)Cc2c[nH]c3ccccc23)cc(OC)c1OC` (configuration not stated): under setting [1], the concentration at half-maximal activity (AC50) was 11.2 µM [rising, partial curve, poor fit].

Consider `Cc1ccc2cc(C3CC(c4ccco4)=NN3S(=O)(=O)c3ccccc3)c(Cl)nc2c1` (configuration not stated), for which the half-maximal activity concentration (AC50) under setting [1] is 15.8 µM [rising, partial curve, poor fit].

Take `CC(C)(C)C(=O)/C=C/c1ccc(Oc2ccccc2)cc1`: the AC50 under setting [1] is 0.00447 µM [falling, full curve, poor fit]. `O=C(/C=C/c1ccccc1)N1c2ccccc2Sc2ccc(C(F)(F)F)cc21`: the AC50 under setting [2] is 35.5 µM [rising, single point]. The same measure, in the same setting: then `CCOC(=O)c1ccc(CN(Cc2ccc(Br)cc2)S(=O)(=O)c2cccc(Cl)c2C)cc1`, with 0.355 µM [falling, partial curve, poor fit]. As for `CCOC(=O)N1CCN(C(=O)CN(c2ccc(Oc3ccccc3)cc2)S(C)(=O)=O)CC1`, the AC50 under setting [1] was 35.5 µM [rising, single point]. With `CCOC(=O)Nc1nc(-c2ccccc2)c(C(=O)c2ccccc2)s1`, the AC50 is 15.8 µM [falling, single point] under setting [2] and 12.6 µM [falling, single point] under setting [1]. In the case of `C/C(=N\N=C(/N)SC1CC(=O)N(c2ccc(Br)cc2)C1=O)c1cccs1` (configuration not stated), under setting [1], the half-maximal activity concentration (AC50) was 11.2 µM [falling, single point]. Consider `O=c1cc(-c2ccc(F)cc2)nc(SCc2nc(-c3ccc(Cl)cc3)no2)[nH]1`, for which the AC50 by setting is: under setting [2], 0.316 µM [rising, partial curve, poor fit]; under setting [1], 0.355 µM [rising, partial curve, poor fit]. As for `COc1ccc(NC(=O)Nc2ccc(C)cc2OC(F)F)cc1OC`, the AC50 under setting [1] is 14.1 µM [rising, single point]. Regarding `N#Cc1c(NC(=O)CSC2=NCCS2)sc2c1CCCC2`, the AC50 reads like this: under setting [2], 10 µM [rising, partial curve]; under setting [1], 14.1 µM [rising, partial curve]. Turning to `Cc1ccc(-c2ccc(/C=C3\C(=O)ON=C3c3ccccc3)o2)c([N+](=O)[O-])c1`, the AC50 is, setting by setting: under setting [2], 0.631 µM [falling, single point]; under setting [1], 14.1 µM [falling, single point]. Turning to `COCCN(Cc1cc2cc(C)ccc2n2nnnc12)C(=S)Nc1ccc(C)cc1`, the AC50 under setting [2] is 0.501 µM [rising, partial curve, poor fit]. Consider `O=C(Cn1c(=O)nc(-c2ccccc2)c2ccccc21)NCc1ccccc1Cl`, for which the AC50 under setting [2] was 35.5 µM [falling, single point]. In the case of `Cc1nc(Nc2ccc(Cl)cc2)c2nnn(Cc3ccccc3)c2n1`, the half-maximal activity concentration (AC50) under setting [1] is 1.26 µM [falling, partial curve, poor fit]. Take `Cn1c(O)c(N=NC(=O)c2cccc(S(=O)(=O)N3CCCCC3)c2)c2ccccc21`: the AC50 under setting [1] was 11.2 µM [rising, single point]. As to `CC(=O)c1ccc(NC(=O)CSc2nc(=O)n(Cc3ccncc3)c3c2CCC3)cc1`, the concentration at half-maximal activity (AC50) under setting [2] is 0.0141 µM [falling, full curve, poor fit].

For `CCN(Cc1ccncc1)C(=O)CCc1nnc(CCc2ccc(OC)cc2)o1`, the AC50 under setting [1] was 35.5 µM [falling, single point]. As to `CC(=O)c1ccc(N2CCN(C(=O)Nc3ccc(F)cc3)CC2)cc1`, the AC50 under setting [2] was 2.82 µM [rising, partial curve, poor fit]. For `Cc1ccccc1C(=O)O/N=C/c1c(N2CCOCC2)n(C)c2ccccc12`, the concentration at half-maximal activity (AC50) reads like this: under setting [2], 5.01 µM [falling, partial curve]; under setting [1], 5.62 µM [falling, full curve].

Consider `O=S(=O)(c1ccc(F)c(F)c1F)N1CCN(C(=S)NCc2ccccc2)CC1`, for which, under setting [1], the AC50 was 0.126 µM [rising, full curve, poor fit]. Regarding `c1ccc2c(c1)CCN(c1nc3cc4c(cc3s1)OCCO4)C2`, the concentration at half-maximal activity (AC50) is 15.8 µM [rising, single point] under setting [2] and 17.8 µM [rising, partial curve] under setting [1]. For the molecule `CCCC(=O)N1CCN(c2ccc(NC(=O)c3cc4ccccc4o3)cc2Cl)CC1`, the AC50 is 3.16 µM [falling, single point] under setting [2] and 14.1 µM [falling, single point] under setting [1]. For `Clc1ccc(OCCCCCN2CCCC2)c(Br)c1`, the AC50 under setting [1] was 0.0126 µM [falling, full curve, poor fit].

As for `COc1cc(NC(=O)CCC2CCCC2)cc(-n2cnnn2)c1`, the concentration at half-maximal activity (AC50) under setting [1] was 17.8 µM [rising, single point]. For `CC(C)C(c1nnnn1Cc1ccccc1)N1CCC(C(N)=O)CC1` (configuration not stated), the AC50 runs as follows: under setting [2], 0.398 µM [falling, full curve, poor fit]; under setting [1], 0.0126 µM [falling, full curve, poor fit].

`COc1ccc(C2=NN(C(=O)CSc3nc4ncc(Cl)cc4[nH]3)C(c3ccco3)C2)cc1` (configuration not stated): the AC50 under setting [2] is 0.0316 µM [falling, full curve, poor fit]. Regarding `COc1ccc(OC)c(NC(=O)C2CCCCC2)c1`, the AC50 under setting [2] is 35.5 µM [rising, single point]. For the molecule `OCC1(Cc2ccccc2)CCN(Cc2ccccn2)CC1`, under setting [1], the AC50 is 7.08 µM [falling, single point]. On the same count and under the same terms, then `O=S(=O)(c1cccc(-c2csc(-c3ccccc3)n2)c1)N1CCOCC1`, with 14.1 µM [rising, single point]. For the molecule `CC(C)(C)n1nc2c(c1NC(=O)Cc1ccccc1)CS(=O)(=O)C2`, the AC50 under setting [2] was 0.01 µM [rising, full curve, poor fit]. With `O=C(Nc1ccc(N2CCOCC2)c(Cl)c1)c1ccc(Cl)cc1`, the half-maximal activity concentration (AC50) runs as follows: under setting [2], 11.2 µM [rising, partial curve]; under setting [1], 10 µM [rising, partial curve]. Consider `CCOCCCn1cc(C(=O)c2cc(Br)ccc2O)cc(C#N)c1=O`, for which the AC50 by setting is: under setting [2], 5.62 µM [rising, full curve]; under setting [1], 7.94 µM [rising, partial curve]. Take `CCOC(=O)C1=C(C)NC(=O)NC1c1ccc(-c2ccccc2F)o1` (configuration not stated): the AC50 under setting [2] was 35.5 µM [rising, single point]. On to `CC(C)NC(=O)c1onc(CSc2cccc3ccccc23)c1C(=O)O`, for which, under setting [2], the AC50 is 15.8 µM [falling, single point].

As to `CC1CCC2C(=O)N(c3ccc(Cc4ccncc4)cc3)C(=O)C2C1` (configuration not stated), the concentration at half-maximal activity (AC50) by setting is: under setting [2], 10 µM [falling, partial curve]; under setting [1], 10 µM [falling, partial curve]. For the molecule `Cc1onc(-c2ccccc2)c1C(=O)NC(=S)NNC(=O)c1ccccc1O`, the concentration at half-maximal activity (AC50) is 0.562 µM [rising, full curve] under setting [2] and 0.794 µM [rising, full curve] under setting [1]. On to `CC1CCCN(c2nc3ccccc3nc2C(C#N)S(=O)(=O)c2cccs2)C1` (configuration not stated), for which the AC50 is 17.8 µM [rising, single point] under setting [2] and 31.6 µM [rising, single point] under setting [1]. As for `O=C(N/N=C/C=C/c1ccco1)c1cccs1`, under setting [1], the AC50 is 1.58 µM [falling, partial curve]. As to `N#Cc1ccccc1N=C1CCCN1Cc1ccccc1`, the AC50 under setting [2] was 0.00447 µM [rising, full curve, poor fit].

Regarding `Cc1ccc(S(=O)(=O)Nc2ccc(SC(F)F)cc2)c(C)c1`, the half-maximal activity concentration (AC50) runs as follows: under setting [2], 14.1 µM [rising, partial curve, poor fit]; under setting [1], 12.6 µM [rising, partial curve]. With `Cc1cccn2c(=O)c(C(=O)NCc3cccc(F)c3)cnc12`, under setting [2], the half-maximal activity concentration (AC50) was 4.47 µM [rising, full curve, poor fit]. Turning to `Cn1c(SCc2ccc(C#N)cc2Cl)nc2ccccc21`, the AC50 is 11.2 µM [rising, partial curve] under setting [2] and 14.1 µM [rising, single point] under setting [1].

As for `N#C/C(=N\Nc1ccc(S(=O)(=O)N2CCOCC2)cc1)C(N)=S`, the AC50 under setting [2] was 35.5 µM [falling, single point]. Consider `CN(C)CCN(Cc1ccccc1)c1ccccn1`, for which the concentration at half-maximal activity (AC50) is 0.631 µM [falling, partial curve] under setting [2]; 22.4 nM [rising, full curve, poor fit] and 28.2 nM [rising, full curve, poor fit] under setting [1]. For the molecule `Cc1ccccc1Oc1nc(-c2ccccn2)nc2ccccc12`, the AC50 under setting [2] was 0.141 µM [falling, partial curve, poor fit]. For the molecule `CC(C)(C)c1ccc(S(=O)(=O)NCCc2ccncc2)cc1`, the AC50 is, setting by setting: under setting [2], 17.8 µM [rising, single point]; under setting [1], 12.6 µM [rising, partial curve]. Regarding `CCN=c1scc(-c2ccco2)n1/N=C/c1ccc(OC)c(O)c1`, the concentration at half-maximal activity (AC50) by setting is: under setting [2], 11.2 µM [rising, partial curve]; under setting [1], 12.6 µM [rising, single point].
